{"sequences": {"note": "Protein sequences, listed by entry. Tags and fused reporters are not part of them. Lines headed by an entry give the natural chain unless they say otherwise; changes in a name come on top.", "UniProt Q8WUB8": "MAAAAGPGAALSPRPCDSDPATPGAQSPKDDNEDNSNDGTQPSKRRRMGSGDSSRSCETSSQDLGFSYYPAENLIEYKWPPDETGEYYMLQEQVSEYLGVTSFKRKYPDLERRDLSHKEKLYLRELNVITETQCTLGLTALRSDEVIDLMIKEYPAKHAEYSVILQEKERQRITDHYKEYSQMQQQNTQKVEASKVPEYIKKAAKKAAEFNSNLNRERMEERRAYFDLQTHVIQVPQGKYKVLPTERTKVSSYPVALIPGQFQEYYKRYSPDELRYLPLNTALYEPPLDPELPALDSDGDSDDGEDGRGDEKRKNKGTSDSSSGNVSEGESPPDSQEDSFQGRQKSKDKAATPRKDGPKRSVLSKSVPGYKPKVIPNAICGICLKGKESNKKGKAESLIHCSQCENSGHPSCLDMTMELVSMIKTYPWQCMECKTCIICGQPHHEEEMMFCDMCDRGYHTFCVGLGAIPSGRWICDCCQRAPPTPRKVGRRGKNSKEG", "UniProt Q8NDV7": "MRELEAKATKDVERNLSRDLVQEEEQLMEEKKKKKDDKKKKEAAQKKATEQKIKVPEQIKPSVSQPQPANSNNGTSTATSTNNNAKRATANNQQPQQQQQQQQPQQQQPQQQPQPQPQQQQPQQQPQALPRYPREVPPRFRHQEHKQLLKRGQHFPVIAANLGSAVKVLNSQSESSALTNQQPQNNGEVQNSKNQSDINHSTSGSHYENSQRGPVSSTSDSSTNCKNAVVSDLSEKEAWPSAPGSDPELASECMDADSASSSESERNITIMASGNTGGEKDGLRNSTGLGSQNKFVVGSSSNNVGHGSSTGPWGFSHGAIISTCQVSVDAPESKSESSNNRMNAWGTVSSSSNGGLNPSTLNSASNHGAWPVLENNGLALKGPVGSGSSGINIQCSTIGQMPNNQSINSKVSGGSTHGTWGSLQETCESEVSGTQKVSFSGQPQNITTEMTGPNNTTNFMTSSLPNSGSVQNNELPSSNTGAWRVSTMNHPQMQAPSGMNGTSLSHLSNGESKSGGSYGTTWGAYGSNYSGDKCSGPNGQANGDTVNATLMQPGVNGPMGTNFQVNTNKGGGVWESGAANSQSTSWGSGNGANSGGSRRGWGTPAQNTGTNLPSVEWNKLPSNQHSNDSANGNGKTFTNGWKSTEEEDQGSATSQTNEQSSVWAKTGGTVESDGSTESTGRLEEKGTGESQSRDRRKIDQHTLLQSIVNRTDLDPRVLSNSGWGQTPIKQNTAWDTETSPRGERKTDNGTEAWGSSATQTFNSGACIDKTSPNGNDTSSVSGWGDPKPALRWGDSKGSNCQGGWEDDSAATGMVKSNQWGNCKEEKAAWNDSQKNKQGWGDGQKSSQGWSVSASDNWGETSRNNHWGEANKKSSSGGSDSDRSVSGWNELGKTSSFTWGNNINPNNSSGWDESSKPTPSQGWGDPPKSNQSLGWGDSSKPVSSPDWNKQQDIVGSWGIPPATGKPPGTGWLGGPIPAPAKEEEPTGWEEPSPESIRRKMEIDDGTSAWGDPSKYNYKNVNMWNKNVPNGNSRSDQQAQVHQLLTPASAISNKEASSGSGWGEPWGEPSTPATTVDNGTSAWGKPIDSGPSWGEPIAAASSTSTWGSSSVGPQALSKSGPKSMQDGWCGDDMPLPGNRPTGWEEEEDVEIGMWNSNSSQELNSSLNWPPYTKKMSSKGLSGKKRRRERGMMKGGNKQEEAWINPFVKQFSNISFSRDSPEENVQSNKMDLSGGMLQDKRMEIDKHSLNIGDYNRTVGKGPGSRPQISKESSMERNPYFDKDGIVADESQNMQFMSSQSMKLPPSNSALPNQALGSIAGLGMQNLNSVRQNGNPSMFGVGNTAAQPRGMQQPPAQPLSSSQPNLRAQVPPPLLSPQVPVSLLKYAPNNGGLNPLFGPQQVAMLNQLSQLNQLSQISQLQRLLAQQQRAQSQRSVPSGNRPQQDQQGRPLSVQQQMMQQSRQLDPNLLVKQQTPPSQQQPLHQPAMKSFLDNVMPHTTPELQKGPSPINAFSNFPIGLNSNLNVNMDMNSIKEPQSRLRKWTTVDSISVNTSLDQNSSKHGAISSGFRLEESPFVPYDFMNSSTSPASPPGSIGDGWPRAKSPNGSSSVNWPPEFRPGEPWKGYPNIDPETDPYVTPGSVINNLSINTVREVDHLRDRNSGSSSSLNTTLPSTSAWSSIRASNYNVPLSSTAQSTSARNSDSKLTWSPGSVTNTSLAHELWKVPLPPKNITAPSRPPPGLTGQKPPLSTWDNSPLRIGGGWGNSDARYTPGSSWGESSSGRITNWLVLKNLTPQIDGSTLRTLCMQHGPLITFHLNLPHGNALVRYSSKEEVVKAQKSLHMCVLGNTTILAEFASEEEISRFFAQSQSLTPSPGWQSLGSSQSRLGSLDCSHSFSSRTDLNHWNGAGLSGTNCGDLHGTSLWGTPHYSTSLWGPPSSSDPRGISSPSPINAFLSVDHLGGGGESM", "UniProt Q8TF05": "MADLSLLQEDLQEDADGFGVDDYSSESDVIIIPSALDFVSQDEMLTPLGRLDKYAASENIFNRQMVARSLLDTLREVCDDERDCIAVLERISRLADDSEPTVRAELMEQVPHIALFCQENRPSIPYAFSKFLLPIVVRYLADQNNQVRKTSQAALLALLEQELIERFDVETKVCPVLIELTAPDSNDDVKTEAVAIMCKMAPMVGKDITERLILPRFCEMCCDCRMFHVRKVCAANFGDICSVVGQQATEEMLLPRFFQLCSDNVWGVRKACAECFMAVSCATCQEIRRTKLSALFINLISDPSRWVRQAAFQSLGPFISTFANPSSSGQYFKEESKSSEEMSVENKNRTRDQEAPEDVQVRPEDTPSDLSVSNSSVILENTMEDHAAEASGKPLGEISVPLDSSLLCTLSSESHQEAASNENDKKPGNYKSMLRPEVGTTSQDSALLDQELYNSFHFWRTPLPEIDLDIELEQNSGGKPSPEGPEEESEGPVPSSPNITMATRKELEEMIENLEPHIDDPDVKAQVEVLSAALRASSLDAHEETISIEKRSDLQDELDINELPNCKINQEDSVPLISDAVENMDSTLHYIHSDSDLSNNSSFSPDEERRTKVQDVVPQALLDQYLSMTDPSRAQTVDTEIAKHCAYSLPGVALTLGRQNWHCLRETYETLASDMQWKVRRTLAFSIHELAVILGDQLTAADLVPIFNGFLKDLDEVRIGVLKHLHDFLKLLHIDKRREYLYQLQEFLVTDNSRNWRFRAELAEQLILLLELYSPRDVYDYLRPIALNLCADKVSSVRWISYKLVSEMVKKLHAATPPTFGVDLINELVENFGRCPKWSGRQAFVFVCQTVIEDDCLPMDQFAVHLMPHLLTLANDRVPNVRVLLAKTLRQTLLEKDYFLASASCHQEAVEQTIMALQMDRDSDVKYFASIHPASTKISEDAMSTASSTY", "UniProt Q8TD19": "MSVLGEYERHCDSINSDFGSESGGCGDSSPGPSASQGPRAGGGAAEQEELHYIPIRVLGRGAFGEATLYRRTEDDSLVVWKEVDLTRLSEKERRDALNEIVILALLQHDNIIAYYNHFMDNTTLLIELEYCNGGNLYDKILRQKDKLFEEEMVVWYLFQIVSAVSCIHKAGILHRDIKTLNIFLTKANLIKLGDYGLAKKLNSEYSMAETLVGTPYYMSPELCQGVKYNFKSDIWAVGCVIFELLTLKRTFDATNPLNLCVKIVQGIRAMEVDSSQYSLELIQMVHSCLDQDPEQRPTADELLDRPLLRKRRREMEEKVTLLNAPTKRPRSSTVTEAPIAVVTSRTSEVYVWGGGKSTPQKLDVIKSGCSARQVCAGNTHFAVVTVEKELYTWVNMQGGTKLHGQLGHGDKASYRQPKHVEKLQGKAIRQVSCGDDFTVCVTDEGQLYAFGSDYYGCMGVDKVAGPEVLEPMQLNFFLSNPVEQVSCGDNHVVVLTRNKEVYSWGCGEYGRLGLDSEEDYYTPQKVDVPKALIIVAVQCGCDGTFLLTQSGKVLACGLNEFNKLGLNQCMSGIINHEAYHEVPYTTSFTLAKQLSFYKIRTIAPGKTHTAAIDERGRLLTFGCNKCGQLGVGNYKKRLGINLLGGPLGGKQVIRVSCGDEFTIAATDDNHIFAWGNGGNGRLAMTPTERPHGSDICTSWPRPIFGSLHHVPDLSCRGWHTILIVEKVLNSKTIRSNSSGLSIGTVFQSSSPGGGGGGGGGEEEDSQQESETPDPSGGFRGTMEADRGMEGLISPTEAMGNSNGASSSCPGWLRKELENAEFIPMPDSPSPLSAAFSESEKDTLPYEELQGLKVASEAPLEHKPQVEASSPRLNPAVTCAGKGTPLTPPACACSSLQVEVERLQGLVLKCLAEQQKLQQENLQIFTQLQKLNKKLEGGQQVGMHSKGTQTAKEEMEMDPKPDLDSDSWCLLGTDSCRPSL", "UniProt Q8NG68": "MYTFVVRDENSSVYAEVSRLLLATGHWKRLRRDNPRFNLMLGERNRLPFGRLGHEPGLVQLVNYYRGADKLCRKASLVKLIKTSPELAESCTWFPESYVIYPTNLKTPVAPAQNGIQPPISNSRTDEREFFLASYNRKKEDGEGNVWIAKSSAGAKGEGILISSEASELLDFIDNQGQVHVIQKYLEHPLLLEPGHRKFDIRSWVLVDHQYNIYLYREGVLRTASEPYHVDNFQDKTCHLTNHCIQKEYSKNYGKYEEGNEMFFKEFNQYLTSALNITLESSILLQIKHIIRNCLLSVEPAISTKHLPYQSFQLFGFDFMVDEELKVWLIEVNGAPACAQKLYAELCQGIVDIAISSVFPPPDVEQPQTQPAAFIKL", "UniProt Q8N954": "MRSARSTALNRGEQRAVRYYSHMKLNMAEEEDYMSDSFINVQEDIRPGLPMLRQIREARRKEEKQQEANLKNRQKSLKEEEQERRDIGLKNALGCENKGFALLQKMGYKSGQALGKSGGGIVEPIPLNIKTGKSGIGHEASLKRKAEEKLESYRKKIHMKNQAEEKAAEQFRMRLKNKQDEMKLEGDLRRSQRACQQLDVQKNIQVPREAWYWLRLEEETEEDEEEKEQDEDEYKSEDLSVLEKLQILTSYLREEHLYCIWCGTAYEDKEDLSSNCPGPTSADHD", "UniProt Q8N3P4": "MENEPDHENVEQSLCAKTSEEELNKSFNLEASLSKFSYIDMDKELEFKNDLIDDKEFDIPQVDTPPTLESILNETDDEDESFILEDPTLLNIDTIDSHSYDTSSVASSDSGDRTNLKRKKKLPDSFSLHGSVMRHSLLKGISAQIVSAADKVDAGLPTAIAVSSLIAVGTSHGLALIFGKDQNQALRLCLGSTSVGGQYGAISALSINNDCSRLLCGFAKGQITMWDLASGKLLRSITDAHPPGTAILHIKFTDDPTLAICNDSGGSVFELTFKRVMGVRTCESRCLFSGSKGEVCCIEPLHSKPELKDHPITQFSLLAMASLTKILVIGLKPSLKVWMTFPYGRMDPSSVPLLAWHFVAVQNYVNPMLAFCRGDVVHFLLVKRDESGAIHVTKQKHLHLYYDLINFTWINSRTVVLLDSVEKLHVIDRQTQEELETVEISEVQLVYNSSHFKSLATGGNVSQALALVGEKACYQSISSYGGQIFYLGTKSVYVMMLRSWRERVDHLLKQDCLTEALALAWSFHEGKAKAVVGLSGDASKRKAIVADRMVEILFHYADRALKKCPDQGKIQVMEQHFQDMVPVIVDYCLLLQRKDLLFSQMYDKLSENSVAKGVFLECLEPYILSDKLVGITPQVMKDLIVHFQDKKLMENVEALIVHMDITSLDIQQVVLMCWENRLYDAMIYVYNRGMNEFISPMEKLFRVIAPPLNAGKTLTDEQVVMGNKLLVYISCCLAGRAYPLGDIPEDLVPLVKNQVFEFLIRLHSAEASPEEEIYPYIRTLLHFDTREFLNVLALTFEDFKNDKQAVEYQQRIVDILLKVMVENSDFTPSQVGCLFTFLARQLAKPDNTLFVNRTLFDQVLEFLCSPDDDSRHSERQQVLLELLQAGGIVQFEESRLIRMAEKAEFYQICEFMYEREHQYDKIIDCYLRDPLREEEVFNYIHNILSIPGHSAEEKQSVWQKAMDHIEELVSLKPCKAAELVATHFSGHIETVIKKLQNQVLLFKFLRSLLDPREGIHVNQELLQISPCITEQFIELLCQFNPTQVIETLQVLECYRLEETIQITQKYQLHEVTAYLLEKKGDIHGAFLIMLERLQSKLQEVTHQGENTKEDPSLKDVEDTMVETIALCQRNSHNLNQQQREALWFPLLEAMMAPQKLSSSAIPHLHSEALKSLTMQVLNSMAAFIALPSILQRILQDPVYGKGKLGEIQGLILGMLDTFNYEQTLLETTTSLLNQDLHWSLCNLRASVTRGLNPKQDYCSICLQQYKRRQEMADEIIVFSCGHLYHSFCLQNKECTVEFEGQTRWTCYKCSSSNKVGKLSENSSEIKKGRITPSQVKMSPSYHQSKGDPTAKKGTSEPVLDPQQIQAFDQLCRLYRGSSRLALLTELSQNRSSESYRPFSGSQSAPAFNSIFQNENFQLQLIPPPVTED"}, "source": "the supplement of paper PMC11006884", "note": "The entries are a selection whose mix differs from that of the whole data set.", "data": [{"compound": "COC(=O)C#Cc1ccccc1 [methyl 3-phenylpropiolate]", "test": "log2 ratio of iodoacetamide-alkyne labeling of the cysteine site, DMSO over compound (competition); higher = stronger covalent engagement of the cysteine by the compound, active = 1 or more", "conditions": "500 µM; treatment time 1 h; system: HEK293T cell lysate", "method_in_brief": "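Three replicates, each with duplicate channels, were prepared from HEK293T lysate (2 mg/mL) treated with vehicle or electrophile at 500 µM for 1 h at ambient temperature. Iodoacetamide alkyne was then applied for 1 h, and samples were clicked to sCIP-TMT reagents, pooled, trypsin-digested overnight at 37 °C, enriched on streptavidin, acid-eluted and analysed on Orbitrap Eclipse LC-MS/MS with FAIMS, with FragPipe quantification. The log2 competition ratio per cysteine is the mean control-channel divided by the mean compound-channel reporter intensity. Cysteines quantified in only one replicate were left out.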", "values": [{"target": "PHF10 C380 (UniProt Q8WUB8)", "log2 ratio of iodoacetamide-alkyne labeling": "inactive: 0.137"}, {"target": "UniProt Q8WYQ9_C159", "log2 ratio of iodoacetamide-alkyne labeling": "inactive: 0.271"}, {"target": "PREX1 C52 (UniProt Q8TCU6)", "log2 ratio of iodoacetamide-alkyne labeling": "inactive: 0.192"}, {"target": "TNRC6A C800 (UniProt Q8NDV7)", "log2 ratio of iodoacetamide-alkyne labeling": "inactive: 0.917"}, {"target": "NUP133 C700 (UniProt Q8WUM0)", "log2 ratio of iodoacetamide-alkyne labeling": "inactive: 0.279"}, {"target": "PPP4R1 C566 (UniProt Q8TF05)", "log2 ratio of iodoacetamide-alkyne labeling": "inactive: 0.313"}, {"target": "NEK9 C11 (UniProt Q8TD19)", "log2 ratio of iodoacetamide-alkyne labeling": "active: 1.21"}, {"target": "LSM14A C375 (UniProt Q8ND56)", "log2 ratio of iodoacetamide-alkyne labeling": "inactive: 0.671"}, {"target": "DDX1 C110 (UniProt Q92499)", "log2 ratio of iodoacetamide-alkyne labeling": "inactive: 0.315"}, {"target": "TTL C91 (UniProt Q8NG68)", "log2 ratio of iodoacetamide-alkyne labeling": "inactive: 0.249"}, {"target": "UniProt Q8N954_C95", "log2 ratio of iodoacetamide-alkyne labeling": "inactive: 0.417"}, {"target": "ARFGAP2 C79 (UniProt Q8N6H7)", "log2 ratio of iodoacetamide-alkyne labeling": "inactive: 0.0746"}, {"target": "DDX51 C238 (UniProt Q8N8A6)", "log2 ratio of iodoacetamide-alkyne labeling": "inactive: 0.0717"}, {"target": "VPS8 C1371 (UniProt Q8N3P4)", "log2 ratio of iodoacetamide-alkyne labeling": "inactive: 0.234"}]}]}
